Data published in patent US20240252549A1, “COMPOSITIONS AND METHODS TO TRANSFECT, TEST, AND TREAT SKIN CELLS” (The Regents of the University of Michigan, priority 2021, published 2024).
At least one compound was matched to its structure with a doubt left.

Key:
Format in all cases: cell-based, human
[1] = system: IFNK promoter region; assay: Bisulfite sequencing analysis of CpG methylation in the IFNK promoter; settings: compared with KC KOs generated without baricitinib, FIG. 4F
[2] = system: MX1; assay: MX1 (interferon-stimulated gene) mRNA expression in keratinocytes (qRT-PCR); settings: for MX1 mRNA expression in baricitinib treated keratinocytes: dose-dependent, FIG. 4C
Procedure: (§1) Immortalized keratinocyte cell line, N/TERT1, was used with permission for generation of knock-out (KO) cell lines using non-homologous end joining via CRISPR/Cas9. […] N/TERTs were grown in Keratinocyte-SFM medium (ThermoFisher #17005-042) supplemented with 30 μg/ml bovine pituitary extract, 0.2 ng/ml epidermal growth factor, and 0.3 mM calcium chloride (2).
(§2) CRISPR KO KCs were generated as previously described (3). In brief, Single-guide RNA (sgRNA) target sequence was developed using a web interface for CRISPR design (https://portals.broadinstitute.org/gpp/public/analysis-tools/sgrna-design). Synthetic sgRNA target sequences were inserted into a cloning backbone, pSpCas9 (BB)-2A-GFP (PX458) (Addgene plasmid #48138) and then cloned into competent E. coli (ThermoFisher #C737303). Proper insertion was validated by Sanger sequencing. The plasmid with proper insertion was then transfected into an immortalized KC line (N/TERTs) using the TransfeX transfection kit (ATCC #ACS4005) in presence or absence of JAK1/JAK2 inhibitor, baricitinib. GFP positive single cells were plated and then expanded. Cells were then genotyped and analyzed by Sanger sequencing.
(§3) RNA extraction, qRT-PCR and RNA-Sequencing were performed following the protocol published earlier (3). RNAs were isolated from cell cultures using Qiagen RNeasy plus kit (Cat #74136). qRT-PCR was performed on a 7900HT Fast Real-time PCR system (Applied Biosystems) with TaqMan Universal PCR Master Mix (ThermoFisher Scientific). Libraries for RNA-seq were generated from polyadenylated RNA and sequenced at six libraries per lane on the Illumina Genome Analyzer IIx. We used STAR to align RNA-seq reads to the human genome, using annotations of GENCODE as gene model. HTSeq was used to quantify gene expression levels; normalization and differential expression analysis were performed by DESeq2.

[3] = system: keratinocytes (N/TERTs); assay: CRISPR/Cas9 transfection efficiency in keratinocytes (GFP positive cells); settings: to the same level as in IFNK or TYK2 KO KCs, FIG. 4D
[4] = system: IFNK; assay: IFNK mRNA expression in keratinocytes (qRT-PCR); settings: for IFNK mRNA expression in baricitinib treated keratinocytes: dose-dependent, FIG. 4C
Procedure: as §1, §2, §3

[5] = suppressed in KOs generated in the absence of baricitinib

Question: What does the source list for `CCS(=O)(=O)N1CC(CC#N)(n2cc(-c3ncnc4[nH]ccc34)cn2)C1` [baricitinib, Baricitinib]?
Answer: CpG hypermethylation of the IFNK promoter region in KC KOs generated in the presence of the inhibitor [1]: did not have hypermethylation; MX1 mRNA expression in baricitinib treated keratinocytes [2]: Suppression; MX1 mRNA expression in baricitinib treated keratinocytes ([2]; listed as Baricitinib): effectively decreased; MX1 expression in CRISPR-Cas9 KC KOs generated in the presence of the inhibitor [2, 5]: intact; CRISPR/Cas9 transfection efficiency in baricitinib treated keratinocytes [3]: increased transfection efficiency; IFNK mRNA expression in baricitinib treated keratinocytes [4]: Suppression; IFNK mRNA expression in baricitinib treated keratinocytes ([4]; listed as Baricitinib): effectively decreased; IFNK expression in CRISPR-Cas9 KC KOs generated in the presence of the inhibitor [4, 5]: intact
